Measured values published in the supplement of paper PMC12823440, “Inhibitors supercharge kinase turnover through native proteolytic circuits” (Nature, 2025).
Counter-ions that a name gives are not always drawn. The list shows a part of the results. The calls rarely recur for the same compound in another form.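 Kinases were expressed as nanoluciferase fusions in K562 cells and luminescence was read every 4 h between 2 and 18 h as percent of control, DMSO set to 100% and a positive control to 0%. A time point counts as decreased when the signal drops significantly (2 sigma). The hit call is the authors' own, does not follow from the count of time points alone, and its rule is not shown.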

Amino acid sequences for entries named in this document (tags omitted). A change or cut given only in a name is not applied to a line headed by its entry.
UniProt Q15208: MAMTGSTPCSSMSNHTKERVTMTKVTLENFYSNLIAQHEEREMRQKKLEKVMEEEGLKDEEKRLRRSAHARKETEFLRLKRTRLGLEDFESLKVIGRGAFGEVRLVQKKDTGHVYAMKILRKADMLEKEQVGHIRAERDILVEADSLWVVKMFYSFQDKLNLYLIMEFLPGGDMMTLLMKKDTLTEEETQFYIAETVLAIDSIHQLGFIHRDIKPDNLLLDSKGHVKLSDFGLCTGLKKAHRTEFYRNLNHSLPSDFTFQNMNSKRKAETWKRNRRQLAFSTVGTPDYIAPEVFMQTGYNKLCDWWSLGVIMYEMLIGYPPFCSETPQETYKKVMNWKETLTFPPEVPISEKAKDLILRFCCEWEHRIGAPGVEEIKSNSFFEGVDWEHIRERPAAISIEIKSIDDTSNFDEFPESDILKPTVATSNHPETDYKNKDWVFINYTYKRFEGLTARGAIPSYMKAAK
UniProt P42680: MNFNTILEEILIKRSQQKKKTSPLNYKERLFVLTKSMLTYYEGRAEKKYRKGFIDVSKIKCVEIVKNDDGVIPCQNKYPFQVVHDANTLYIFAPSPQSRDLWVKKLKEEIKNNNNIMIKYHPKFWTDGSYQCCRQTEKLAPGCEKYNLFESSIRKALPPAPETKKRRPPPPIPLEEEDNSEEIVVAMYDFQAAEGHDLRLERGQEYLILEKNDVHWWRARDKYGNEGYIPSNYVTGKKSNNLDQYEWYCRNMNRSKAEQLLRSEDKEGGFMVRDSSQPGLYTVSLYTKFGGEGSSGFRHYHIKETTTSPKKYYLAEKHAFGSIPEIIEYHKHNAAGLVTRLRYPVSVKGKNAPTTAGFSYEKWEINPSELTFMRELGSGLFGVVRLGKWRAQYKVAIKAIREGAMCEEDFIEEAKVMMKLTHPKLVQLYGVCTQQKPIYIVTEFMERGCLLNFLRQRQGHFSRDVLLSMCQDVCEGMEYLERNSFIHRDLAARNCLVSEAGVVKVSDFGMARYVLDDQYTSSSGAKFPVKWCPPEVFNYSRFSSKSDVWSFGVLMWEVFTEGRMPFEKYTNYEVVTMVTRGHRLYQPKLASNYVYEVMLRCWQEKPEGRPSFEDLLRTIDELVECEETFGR
UniProt P00519, whole entry: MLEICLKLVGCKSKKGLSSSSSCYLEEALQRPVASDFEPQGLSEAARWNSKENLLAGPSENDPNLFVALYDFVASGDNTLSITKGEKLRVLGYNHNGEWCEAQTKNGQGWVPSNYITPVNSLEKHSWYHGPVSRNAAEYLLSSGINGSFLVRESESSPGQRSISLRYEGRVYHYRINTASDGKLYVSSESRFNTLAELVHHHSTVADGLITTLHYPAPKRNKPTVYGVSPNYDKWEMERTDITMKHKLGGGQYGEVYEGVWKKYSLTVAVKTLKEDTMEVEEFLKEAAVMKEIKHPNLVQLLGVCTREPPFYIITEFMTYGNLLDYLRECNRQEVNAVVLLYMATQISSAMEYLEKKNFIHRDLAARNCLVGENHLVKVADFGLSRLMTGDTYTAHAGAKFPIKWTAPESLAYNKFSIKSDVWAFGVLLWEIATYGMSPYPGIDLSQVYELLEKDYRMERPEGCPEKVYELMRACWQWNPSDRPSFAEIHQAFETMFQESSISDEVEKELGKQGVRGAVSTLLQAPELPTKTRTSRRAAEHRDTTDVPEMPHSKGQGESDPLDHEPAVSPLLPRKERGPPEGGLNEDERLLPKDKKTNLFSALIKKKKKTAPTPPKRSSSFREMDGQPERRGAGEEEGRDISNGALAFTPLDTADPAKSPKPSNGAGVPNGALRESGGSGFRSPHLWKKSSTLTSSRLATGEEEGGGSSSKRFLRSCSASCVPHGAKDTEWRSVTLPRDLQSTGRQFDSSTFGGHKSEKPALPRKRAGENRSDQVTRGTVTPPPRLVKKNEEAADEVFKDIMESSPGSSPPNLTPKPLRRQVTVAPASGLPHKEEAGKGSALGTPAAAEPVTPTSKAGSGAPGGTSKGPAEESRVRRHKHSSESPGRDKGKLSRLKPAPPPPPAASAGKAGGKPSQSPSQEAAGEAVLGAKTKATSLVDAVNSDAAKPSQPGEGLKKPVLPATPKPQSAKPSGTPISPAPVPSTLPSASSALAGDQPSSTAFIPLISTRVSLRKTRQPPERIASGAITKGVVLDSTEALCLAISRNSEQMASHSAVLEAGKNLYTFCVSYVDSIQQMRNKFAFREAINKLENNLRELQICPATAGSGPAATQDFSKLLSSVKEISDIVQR
UniProt P31749: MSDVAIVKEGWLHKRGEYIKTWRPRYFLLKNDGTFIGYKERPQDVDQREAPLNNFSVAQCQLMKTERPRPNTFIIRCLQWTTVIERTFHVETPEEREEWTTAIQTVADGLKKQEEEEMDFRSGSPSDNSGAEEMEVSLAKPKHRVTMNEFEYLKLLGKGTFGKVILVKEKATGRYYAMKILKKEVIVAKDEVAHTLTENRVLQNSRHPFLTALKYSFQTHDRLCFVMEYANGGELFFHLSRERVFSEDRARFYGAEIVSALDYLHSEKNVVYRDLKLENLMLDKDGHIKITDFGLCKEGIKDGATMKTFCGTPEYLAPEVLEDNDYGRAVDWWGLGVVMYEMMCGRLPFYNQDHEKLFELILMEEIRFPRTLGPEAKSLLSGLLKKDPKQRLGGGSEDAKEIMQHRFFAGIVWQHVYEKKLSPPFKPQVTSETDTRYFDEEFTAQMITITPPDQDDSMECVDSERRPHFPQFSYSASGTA
UniProt Q9UM73: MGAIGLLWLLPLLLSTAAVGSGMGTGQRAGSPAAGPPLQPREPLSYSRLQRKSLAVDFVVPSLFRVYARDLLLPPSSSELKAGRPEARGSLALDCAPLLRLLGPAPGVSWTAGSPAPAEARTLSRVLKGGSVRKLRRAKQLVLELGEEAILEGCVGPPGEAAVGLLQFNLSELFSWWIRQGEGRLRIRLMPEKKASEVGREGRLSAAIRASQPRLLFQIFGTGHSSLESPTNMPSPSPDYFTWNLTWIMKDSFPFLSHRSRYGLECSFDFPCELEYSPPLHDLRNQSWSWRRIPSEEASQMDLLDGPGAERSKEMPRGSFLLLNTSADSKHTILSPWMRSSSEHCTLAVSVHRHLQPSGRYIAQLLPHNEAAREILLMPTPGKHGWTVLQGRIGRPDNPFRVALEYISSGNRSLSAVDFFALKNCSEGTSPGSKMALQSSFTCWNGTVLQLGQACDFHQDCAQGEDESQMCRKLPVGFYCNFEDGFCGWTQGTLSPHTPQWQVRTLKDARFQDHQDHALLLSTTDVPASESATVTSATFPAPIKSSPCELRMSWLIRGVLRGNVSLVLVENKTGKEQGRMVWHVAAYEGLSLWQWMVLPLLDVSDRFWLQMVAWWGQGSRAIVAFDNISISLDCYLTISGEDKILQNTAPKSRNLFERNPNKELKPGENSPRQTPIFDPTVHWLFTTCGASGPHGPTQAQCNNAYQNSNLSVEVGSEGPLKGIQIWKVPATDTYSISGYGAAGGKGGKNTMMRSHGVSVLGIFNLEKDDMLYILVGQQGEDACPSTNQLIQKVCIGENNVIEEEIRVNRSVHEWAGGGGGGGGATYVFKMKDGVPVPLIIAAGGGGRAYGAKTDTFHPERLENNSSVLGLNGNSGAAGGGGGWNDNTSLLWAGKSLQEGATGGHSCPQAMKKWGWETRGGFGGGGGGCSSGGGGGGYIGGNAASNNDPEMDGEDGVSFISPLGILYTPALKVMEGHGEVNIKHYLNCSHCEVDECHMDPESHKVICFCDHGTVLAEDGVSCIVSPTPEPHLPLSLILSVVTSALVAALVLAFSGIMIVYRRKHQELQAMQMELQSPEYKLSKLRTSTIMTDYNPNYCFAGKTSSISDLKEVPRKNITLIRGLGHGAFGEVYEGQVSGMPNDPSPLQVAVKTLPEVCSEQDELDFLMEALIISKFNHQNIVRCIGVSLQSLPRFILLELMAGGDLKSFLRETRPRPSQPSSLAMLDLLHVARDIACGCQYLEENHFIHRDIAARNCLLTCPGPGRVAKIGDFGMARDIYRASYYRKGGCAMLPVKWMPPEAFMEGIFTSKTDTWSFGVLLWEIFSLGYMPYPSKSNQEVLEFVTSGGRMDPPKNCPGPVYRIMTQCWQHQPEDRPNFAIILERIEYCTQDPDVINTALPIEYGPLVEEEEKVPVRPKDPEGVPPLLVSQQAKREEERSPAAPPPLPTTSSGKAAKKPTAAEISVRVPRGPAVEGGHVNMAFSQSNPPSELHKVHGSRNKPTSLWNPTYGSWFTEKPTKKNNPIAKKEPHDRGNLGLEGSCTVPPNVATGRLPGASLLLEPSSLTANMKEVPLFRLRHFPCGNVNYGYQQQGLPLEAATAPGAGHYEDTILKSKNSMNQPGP
UniProt O14965: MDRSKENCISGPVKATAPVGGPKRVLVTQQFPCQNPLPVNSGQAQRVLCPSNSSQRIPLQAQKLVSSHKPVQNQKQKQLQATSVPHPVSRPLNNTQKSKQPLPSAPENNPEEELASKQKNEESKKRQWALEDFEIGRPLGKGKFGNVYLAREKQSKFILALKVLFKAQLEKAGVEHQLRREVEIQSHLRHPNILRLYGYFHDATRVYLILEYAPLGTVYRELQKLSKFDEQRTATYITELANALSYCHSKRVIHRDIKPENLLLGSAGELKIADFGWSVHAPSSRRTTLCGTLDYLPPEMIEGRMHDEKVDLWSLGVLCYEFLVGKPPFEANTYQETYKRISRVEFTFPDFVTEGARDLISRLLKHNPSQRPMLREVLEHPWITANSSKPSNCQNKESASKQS
UniProt Q96GD4, whole entry: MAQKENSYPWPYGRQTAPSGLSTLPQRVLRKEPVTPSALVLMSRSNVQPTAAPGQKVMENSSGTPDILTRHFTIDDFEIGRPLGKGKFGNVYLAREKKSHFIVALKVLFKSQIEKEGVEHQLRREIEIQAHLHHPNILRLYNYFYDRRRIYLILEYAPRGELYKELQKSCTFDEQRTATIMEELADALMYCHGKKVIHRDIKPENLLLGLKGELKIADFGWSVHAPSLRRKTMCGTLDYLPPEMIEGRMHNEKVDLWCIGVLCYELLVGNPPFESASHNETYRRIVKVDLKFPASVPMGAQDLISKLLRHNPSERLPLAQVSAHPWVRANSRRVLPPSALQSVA
UniProt P15056, whole entry, looked up: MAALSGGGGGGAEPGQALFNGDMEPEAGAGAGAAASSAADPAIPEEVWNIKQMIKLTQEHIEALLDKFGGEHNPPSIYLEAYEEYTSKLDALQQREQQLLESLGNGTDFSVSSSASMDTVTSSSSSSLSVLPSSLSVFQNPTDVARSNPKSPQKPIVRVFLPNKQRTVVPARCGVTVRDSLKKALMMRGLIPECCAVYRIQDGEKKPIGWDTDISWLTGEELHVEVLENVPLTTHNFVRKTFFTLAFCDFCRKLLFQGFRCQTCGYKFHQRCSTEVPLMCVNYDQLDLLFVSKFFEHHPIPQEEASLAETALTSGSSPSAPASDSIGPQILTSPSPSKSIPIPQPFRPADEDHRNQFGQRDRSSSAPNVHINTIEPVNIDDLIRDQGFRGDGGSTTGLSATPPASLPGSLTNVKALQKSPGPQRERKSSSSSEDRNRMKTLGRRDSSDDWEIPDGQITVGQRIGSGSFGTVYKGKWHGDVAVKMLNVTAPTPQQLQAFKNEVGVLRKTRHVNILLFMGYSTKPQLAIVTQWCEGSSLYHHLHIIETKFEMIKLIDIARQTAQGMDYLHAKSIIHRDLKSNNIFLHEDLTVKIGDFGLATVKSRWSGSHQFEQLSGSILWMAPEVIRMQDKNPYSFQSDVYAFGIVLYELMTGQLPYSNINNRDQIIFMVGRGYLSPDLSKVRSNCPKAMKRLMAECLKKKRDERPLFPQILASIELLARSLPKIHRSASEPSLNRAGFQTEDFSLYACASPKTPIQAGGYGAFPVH
UniProt Q06187: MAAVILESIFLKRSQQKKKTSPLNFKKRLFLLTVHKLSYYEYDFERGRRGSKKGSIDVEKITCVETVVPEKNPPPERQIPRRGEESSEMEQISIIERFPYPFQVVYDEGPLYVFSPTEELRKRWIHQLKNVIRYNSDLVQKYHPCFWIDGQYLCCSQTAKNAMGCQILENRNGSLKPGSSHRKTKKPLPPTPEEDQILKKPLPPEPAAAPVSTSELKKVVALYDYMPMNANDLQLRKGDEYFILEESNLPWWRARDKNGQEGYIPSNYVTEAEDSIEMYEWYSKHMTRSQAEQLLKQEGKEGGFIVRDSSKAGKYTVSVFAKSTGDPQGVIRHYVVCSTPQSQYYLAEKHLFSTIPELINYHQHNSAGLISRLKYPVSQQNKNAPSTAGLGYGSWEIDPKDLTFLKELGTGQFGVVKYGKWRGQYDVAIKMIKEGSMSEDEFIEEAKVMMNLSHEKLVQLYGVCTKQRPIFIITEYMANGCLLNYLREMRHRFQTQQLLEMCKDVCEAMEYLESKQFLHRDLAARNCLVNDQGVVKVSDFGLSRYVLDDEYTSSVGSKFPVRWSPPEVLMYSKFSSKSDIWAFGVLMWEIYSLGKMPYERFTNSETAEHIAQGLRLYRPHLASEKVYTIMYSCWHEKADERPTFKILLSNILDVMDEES

Tests used:
Settings in all cases: K562; 2-18 h
STK38 = STK38 (UniProt Q15208); experiment: kinase-Nluc reporter destabilization hit call (1 = scored as downregulated) (binary); higher = compound decreases kinase abundance
SYK = SYK (UniProt P43405); experiment: as above
TEC = TEC (UniProt P42680); experiment: as above
TYK2 = TYK2 (UniProt P29597); experiment: as above
ULK3 = ULK3 (UniProt Q6PHR2); experiment: as above
YES1 = YES1 (UniProt P07947); experiment: as above
ZAK = ZAK (UniProt Q9NYL2); experiment: as above
ZAP70 = ZAP70 (UniProt P43403); experiment: as above
ABL1 = ABL1 (UniProt P00519); experiment: number of time points (of 5) at which kinase-Nluc abundance scored as decreased, DMSO-normalised (count); higher = more persistent destabilization
AKT1 = AKT1 (UniProt P31749); experiment: as above
ALK = ALK (UniProt Q9UM73); experiment: as above
ARAF = ARAF (UniProt P10398); experiment: as above
AURKA = AURKA (UniProt O14965); experiment: as above
AURKB = AURKB (UniProt Q96GD4); experiment: as above
AURKC = AURKC (UniProt Q9UQB9); experiment: as above
BLK = BLK (UniProt P51451); experiment: as above
BMX = BMX (UniProt P51813); experiment: as above
BRAF = BRAF (UniProt P15056); experiment: as above
BRAF_V600E = experiment: as above
BTK = BTK (UniProt Q06187); experiment: as above

SMILES	kinase-Nluc reporter destabilization hit call (STK38)	kinase-Nluc reporter destabilization hit call (SYK)	kinase-Nluc reporter destabilization hit call (TEC)	kinase-Nluc reporter destabilization hit call (TYK2)	kinase-Nluc reporter destabilization hit call (ULK3)	kinase-Nluc reporter destabilization hit call (YES1)	kinase-Nluc reporter destabilization hit call (ZAK)	kinase-Nluc reporter destabilization hit call (ZAP70)	number of time points (ABL1)	number of time points (AKT1)	number of time points (ALK)	number of time points (ARAF)	number of time points (AURKA)	number of time points (AURKB)	number of time points (AURKC)	number of time points (BLK)	number of time points (BMX)	number of time points (BRAF)	number of time points (BRAF_V600E)	number of time points (BTK)
CC1(C)CC=C(c2nc(C3CC(C)(C)OC(C)(C)C3)ccc2NC(=O)c2nc(C#N)c[nH]2)CC1 [Edicotinib] (2.5 µM)	inactive: 0	inactive: 0	inactive: 0	inactive: 0	inactive: 0	inactive: 0	inactive: 0	inactive: 0	0	0	0	0	0	0	0	0	0	0	0	0
CCn1cc(-c2ccnc3[nH]c(-c4cccc(CN(C)C)c4)cc23)c(-c2ccc(NC(=O)N(C)C)cc2)n1 (2.5 µM)	inactive: 0	inactive: 0	inactive: 0	inactive: 0	inactive: 0	inactive: 0	inactive: 0	inactive: 0	0	0	0	0	0	0	0	0	0	0	0	0
CC(C)=CC/C=C(\C)[C@H]1CC[C@]2(C)[C@@H]1[C@H](O)C[C@@H]1[C@@]3(C)CC[C@H](O[C@@H]4O[C@H](CO)[C@@H](O)[C@H](O)[C@H]4O[C@@H]4O[C@H](CO)[C@@H](O)[C@H](O)[C@H]4O)C(C)(C)[C@@H]3CC[C@]12C [Ginsenoside Rg5] (10 µM)	inactive: 0	inactive: 0	inactive: 0	inactive: 0	inactive: 0	inactive: 0	inactive: 0	inactive: 0	0	0	0	0	0	0	0	0	0	0	0	0
C/C=C(/C)C(=O)O[C@H]1Cc2cc3ccc(=O)oc3cc2OC1(C)C [Decursinol angelate] (10 µM)	inactive: 0	inactive: 0	inactive: 0	inactive: 0	inactive: 0	inactive: 0	inactive: 0	inactive: 0	0	0	0	0	0	0	0	0	0	0	0	0
O=c1c(O)c(-c2ccc(O)c(O)c2)oc2cc(O)cc(O)c12 [Quercetin (dihydrate)] (10 µM)	inactive: 0	inactive: 0	inactive: 0	inactive: 0	inactive: 0	inactive: 0	inactive: 0	inactive: 0	0	0	0	0	0	0	0	0	0	0	0	0
c1cc(OCCN2CCCCC2)cc(-c2n[nH]c3ccc(-c4nnc[nH]4)cc23)c1 [CC-401 (hydrochloride)] (10 µM)	inactive: 0	inactive: 0	inactive: 0	inactive: 0	inactive: 0	inactive: 0	inactive: 0	inactive: 0	0	0	0	0	0	0	0	0	0	0	0	0
COc1ccc(COc2ccc(Cc3cnc(N)nc3N)cc2OC)cc1 (10 µM)	inactive: 0	inactive: 0	inactive: 0	inactive: 0	inactive: 0	inactive: 0	inactive: 0	inactive: 0	0	0	0	0	0	0	0	0	0	0	0	0
C=CC(=O)Nc1cccc(Nc2nc(Nc3ccc(OCCOC)cc3)ncc2F)c1 [Spebrutinib] (10 µM)	inactive: 0	inactive: 0	inactive: 0	inactive: 0	inactive: 0	inactive: 0	inactive: 0	inactive: 0	0	0	0	0	0	0	0	0	0	0	0	0
Cc1ccc(NC(=O)Nc2nnc(Sc3ncnc4cc(OCCCN5CCOCC5)ccc34)s2)cc1 (10 µM)	inactive: 0	inactive: 0	inactive: 0	inactive: 0	inactive: 0	inactive: 0	inactive: 0	inactive: 0	0	0	0	0	0	0	0	0	0	0	0	0
CC[C@H](CO)Nc1nc(NCc2ccccc2)c2ncn(C(C)C)c2n1 [Seliciclib] (10 µM)	inactive: 0	inactive: 0	inactive: 0	inactive: 0	inactive: 0	inactive: 0	inactive: 0	inactive: 0	0	0	0	0	0	0	0	0	0	0	0	0
CN1CCN(C(=O)c2ccc(-c3ccc4c(C=O)c(O)ccc4c3)s2)CC1 (2.5 µM)	inactive: 0	inactive: 0	inactive: 0	inactive: 0	inactive: 0	inactive: 0	inactive: 0	inactive: 0	0	0	0	0	0	0	0	0	0	0	0	0
Cc1[nH]c(/C=C2\C(=O)Nc3ccc(S(=O)(=O)Cc4c(Cl)cccc4Cl)cc32)c(C)c1C(=O)N1CCC[C@@H]1CN1CCCC1 (2.5 µM)	inactive: 0	inactive: 0	inactive: 0	inactive: 0	inactive: 0	inactive: 0	inactive: 0	inactive: 0	0	0	0	0	0	0	0	0	0	0	0	0
CC(C)n1cnc2c(NCc3cccc(C(F)(F)F)c3)ncnc21 [Longdaysin] (10 µM)	inactive: 0	inactive: 0	inactive: 0	inactive: 0	inactive: 0	inactive: 0	inactive: 0	inactive: 0	0	0	0	0	0	0	0	0	0	0	0	0
COc1ccc2c(C(=O)Nc3ccc(NC(=O)c4nn(C5CCN(C(=O)CC(C)(C)C#N)CC5)c5ccc(F)cc45)cc3Cl)cnn2c1 [Src Inhibitor 3] (2.5 µM)	inactive: 0	inactive: 0	inactive: 0	inactive: 0	inactive: 0	inactive: 0	inactive: 0	inactive: 0	3	0	2	1	1	1	1	2	3	2	2	0
COc1c(CC=C(C)C)c(O)cc2oc(=O)c(-c3ccc(O)cc3O)cc12 [Glycycoumarin] (10 µM)	inactive: 0	inactive: 0	inactive: 0	inactive: 0	inactive: 0	inactive: 0	inactive: 0	inactive: 0	0	0	0	0	0	0	0	0	0	0	0	0
COc1cc2ncnc(Nc3cccc(O)c3)c2cc1OC (10 µM)	inactive: 0	inactive: 0	inactive: 0	inactive: 0	inactive: 0	inactive: 0	inactive: 0	inactive: 0	4	0	3	0	1	2	0	1	2	1	3	0
Cc1c(C(=O)N2CCOc3ccc(-c4ccc(N)nc4)cc3C2)ccc(S(C)(=O)=O)c1F (10 µM)	inactive: 0	inactive: 0	inactive: 0	inactive: 0	inactive: 0	inactive: 0	inactive: 0	inactive: 0	5	0	0	0	3	0	0	1	3	0	2	0
CC(C)C(=O)Nc1ncc(-c2cc(C(F)F)nn2-c2c(Cl)cccc2Cl)s1 (10 µM)	inactive: 0	inactive: 0	inactive: 0	active: 1	inactive: 0	inactive: 0	inactive: 0	inactive: 0	0	0	0	0	0	0	0	0	5	0	0	0
CCCCC[C@H](O)CC(=O)CCc1ccc(O)c(OC)c1 [[6]-Gingerol] (10 µM)	inactive: 0	inactive: 0	inactive: 0	inactive: 0	inactive: 0	inactive: 0	inactive: 0	inactive: 0	0	0	0	0	0	0	0	0	0	0	0	0
CN1CCC(Nc2ncc3ncnc(Nc4ccc(F)c(Cl)c4)c3n2)CC1 [Falnidamol] (10 µM)	inactive: 0	inactive: 0	inactive: 0	inactive: 0	inactive: 0	inactive: 0	inactive: 0	inactive: 0	0	0	0	0	0	0	0	0	0	0	0	0
Brc1c(Br)c(Br)c2n[nH]nc2c1Br (10 µM)	inactive: 0	inactive: 0	inactive: 0	inactive: 0	inactive: 0	inactive: 0	inactive: 0	inactive: 0	0	0	0	0	0	0	0	0	0	0	0	0
CCN(CCO)CCCOc1ccc2c(Nc3cc(CC(=O)Nc4cccc(F)c4)[nH]n3)ncnc2c1 [Barasertib-HQPA] (10 µM)	inactive: 0	inactive: 0	inactive: 0	inactive: 0	inactive: 0	inactive: 0	inactive: 0	inactive: 0	0	0	0	0	0	0	0	0	0	0	0	0

3 structures out of the list, ordered by molar mass, high to low:
SMILES	kinase-Nluc reporter destabilization hit call (STK38)	kinase-Nluc reporter destabilization hit call (SYK)	kinase-Nluc reporter destabilization hit call (TEC)	kinase-Nluc reporter destabilization hit call (TYK2)	kinase-Nluc reporter destabilization hit call (ULK3)	kinase-Nluc reporter destabilization hit call (YES1)	kinase-Nluc reporter destabilization hit call (ZAK)	kinase-Nluc reporter destabilization hit call (ZAP70)	number of time points (ABL1)	number of time points (AKT1)	number of time points (ALK)	number of time points (ARAF)	number of time points (AURKA)	number of time points (AURKB)	number of time points (AURKC)	number of time points (BLK)	number of time points (BMX)	number of time points (BRAF)	number of time points (BRAF_V600E)	number of time points (BTK)
Cc1[nH]c(/C=C2\C(=O)Nc3ccc(S(=O)(=O)Cc4c(Cl)cccc4Cl)cc32)c(C)c1C(=O)N1CCC[C@@H]1CN1CCCC1 (2.5 µM)	inactive: 0	inactive: 0	inactive: 0	inactive: 0	inactive: 0	inactive: 0	inactive: 0	inactive: 0	0	0	0	0	0	0	0	0	0	0	0	0
C=CC(=O)Nc1cccc(Nc2nc(Nc3ccc(OCCOC)cc3)ncc2F)c1 [Spebrutinib] (10 µM)	inactive: 0	inactive: 0	inactive: 0	inactive: 0	inactive: 0	inactive: 0	inactive: 0	inactive: 0	0	0	0	0	0	0	0	0	0	0	0	0
CN1CCN(C(=O)c2ccc(-c3ccc4c(C=O)c(O)ccc4c3)s2)CC1 (2.5 µM)	inactive: 0	inactive: 0	inactive: 0	inactive: 0	inactive: 0	inactive: 0	inactive: 0	inactive: 0	0	0	0	0	0	0	0	0	0	0	0	0
